Experiment [1] has as its system ReNCell VM. As to the kind of experiment: neuronal differentiation score (DCX+ cell fraction vs untreated, manual image score) (score (-3 to 3)); higher = more neuronal differentiation. To be noted: 2 uM, 2 weeks.
For experiment [2], the system named is ReNCell VM. Description: dopaminergic neuron differentiation score (TH+ cell fraction vs untreated, manual image score) (score (0 to 3)); higher = more TH+ dopaminergic neuron differentiation. As to conditions: 2 uM, 4 weeks, BDNF 10 ng/ml + GDNF 10 ng/ml.

Where a name gives a salt, the structure may show the parent alone. This is one part of the list. Single values are uncertain here, since repeats match poorly.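 ReNCell VM, a human fetal ventral-midbrain neural progenitor line, was differentiated without mitogens. Blinded raters scored images stained for doublecortin (early neurons) or tyrosine hydroxylase (dopaminergic neurons) against untreated wells (0 = no change). Scores were averaged across repeats and both raters, and compounds averaging 2 or more were selected as hits for retesting.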

`CC(=O)O[C@@]12CO[C@@H]1C[C@H](O)[C@@]1(C)C(=O)[C@H](O)C3=C(C)[C@@H](OC(=O)[C@H](O)[C@@H](NC(=O)OC(C)(C)C)c4ccccc4)C[C@@](O)([C@@H](OC(=O)c4ccccc4)[C@H]21)C3(C)C` [Docetaxel]: in the experiment on ReNCell VM [1] (library: Prestwick), the neuronal differentiation score was inactive: 0. For the same compound, the “dopaminergic neuron differentiation score” value with ReNCell VM [2] (library: Prestwick) is inactive: 0.
As for `CCC(=O)NC1Cc2ccccc2C(c2ccccc2)C1` (stereo not drawn), in the experiment with ReNCell VM [1] (library: Tocriscreen), the neuronal differentiation score was inactive: 0. The “dopaminergic neuron differentiation score” value in the experiment with ReNCell VM [2] (library: Tocriscreen) is inactive: 0.
In the case of `O=C(c1ccc(F)cc1)C1CCN(CCCCc2ccccc2)CC1` [4-(4-Fluorobenzoyl)-1-(4-phenylbutyl)-piperidine oxalate], the neuronal differentiation score in the experiment with ReNCell VM [1] (library: Tocriscreen) was active: 3. The “dopaminergic neuron differentiation score” value in the experiment with ReNCell VM [2] (library: Tocriscreen) is inactive: 0.
With `CN(CCOc1ccc(CC2SC(=O)NC2=O)cc1)c1ccccn1` (stereo not drawn), in the experiment on ReNCell VM [1] (library: Spectrum), the neuronal differentiation score is inactive: 0. The “dopaminergic neuron differentiation score” value in the experiment with ReNCell VM [2] (library: Spectrum) was inactive: 0.
Regarding `CCCCC(CC)CN1CN(CC(CC)CCCC)CC(C)(N)C1` (stereo not drawn) [Hexetidine], in the experiment on ReNCell VM [1] (library: Prestwick), the neuronal differentiation score is inactive: 0. Further, in the experiment with ReNCell VM [2] (library: Prestwick), the “dopaminergic neuron differentiation score” value is inactive: 0.
For `NC(=O)CCCCn1ccc(NC(N)=NCC(F)(F)F)n1`, the neuronal differentiation score in the experiment on ReNCell VM [1] (library: Tocriscreen) was inactive: 0. The “dopaminergic neuron differentiation score” value in the experiment with ReNCell VM [2] (library: Tocriscreen) was inactive: 0.
As to `N[C@@H](Cc1ccccc1)C(=O)O`, the neuronal differentiation score in the experiment on ReNCell VM [1] (library: Spectrum) is inactive: 0. Further, the “dopaminergic neuron differentiation score” value in the experiment on ReNCell VM [2] (library: Spectrum) is inactive: 0.
Regarding `CC(C)NC[C@@H](O)COc1cccc2ccccc12` [(R)-Propranolol hydrochloride], the neuronal differentiation score with ReNCell VM [1] (library: Prestwick) is inactive: 0. Further, the “dopaminergic neuron differentiation score” value in the experiment on ReNCell VM [2] (library: Prestwick) was inactive: 0.
Turning to `CCCCCCCCNC(C)C(O)c1ccc(SC(C)C)cc1` (stereo not drawn) [Suloctidil], in the experiment on ReNCell VM [1] (library: Prestwick), the neuronal differentiation score was inactive: 0. The “dopaminergic neuron differentiation score” value in the experiment with ReNCell VM [2] (library: Prestwick) is inactive: 0.
For the compound `O=c1c(-c2ccc(O)cc2)coc2cc(O[C@@H]3O[C@H](CO)[C@@H](O)[C@H](O)[C@H]3O)cc(O)c12` [Genistin], the neuronal differentiation score in the experiment with ReNCell VM [1] (library: Phytochemical) was inactive: 0. Also, in the experiment with ReNCell VM [2] (library: Phytochemical), the “dopaminergic neuron differentiation score” value is inactive: 0.
`NCCCC[C@H](N[C@@H](CCc1ccccc1)C(=O)O)C(=O)N1CCC[C@H]1C(=O)O` [Lisinopril]: in the experiment with ReNCell VM [1] (library: Prestwick), the neuronal differentiation score was inactive: 0. In addition, the “dopaminergic neuron differentiation score” value in the experiment with ReNCell VM [2] (library: Prestwick) is inactive: 0.
For `Nc1nc(=O)c2c([nH]1)NCC(CNc1ccc(C(=O)N[C@@H](CCC(=O)O)C(=O)O)cc1)=N2`, the neuronal differentiation score in the experiment on ReNCell VM [1] (library: Spectrum) was inactive: 0. Also, the “dopaminergic neuron differentiation score” value with ReNCell VM [2] (library: Spectrum) was inactive: 0.
With `COc1ccc(C(=O)c2ccccc2O)c(O)c1`, the neuronal differentiation score in the experiment with ReNCell VM [1] (library: Spectrum) was inactive: 0. The “dopaminergic neuron differentiation score” value with ReNCell VM [2] (library: Spectrum) was inactive: 0.
On to `O=C(/C=C/c1ccccc1)c1ccc(O[C@@H]2O[C@H](CO)[C@@H](O)[C@H](O)[C@H]2O)cc1O`, for which, in the experiment with ReNCell VM [1] (library: Spectrum), the neuronal differentiation score was inactive: 0. In addition, the “dopaminergic neuron differentiation score” value in the experiment on ReNCell VM [2] (library: Spectrum) is inactive: 0.
As for `Cc1ccc(NC(=O)C(C)C)cc1C1CCN(Cc2ccc(Oc3ccc(F)c(F)c3)cc2)CC1`, the neuronal differentiation score with ReNCell VM [1] (library: Tocriscreen) was inactive: 0. Also, the “dopaminergic neuron differentiation score” value in the experiment on ReNCell VM [2] (library: Tocriscreen) is inactive: 0.
As to `COc1cc2c(cc1OC)C(=O)OC2`, the neuronal differentiation score with ReNCell VM [1] (library: Spectrum) was inactive: 0. Also, in the experiment on ReNCell VM [2] (library: Spectrum), the “dopaminergic neuron differentiation score” value was inactive: 0.
For `NC(Cc1ccc(Cl)cc1)C(=O)O` (stereo not drawn), the neuronal differentiation score in the experiment with ReNCell VM [1] (library: Spectrum) is inactive: 0. The “dopaminergic neuron differentiation score” value in the experiment with ReNCell VM [2] (library: Spectrum) was inactive: 0.
For `CC(=O)Oc1cccc(O)c1`, in the experiment on ReNCell VM [1] (library: Spectrum), the neuronal differentiation score was inactive: 0. The “dopaminergic neuron differentiation score” value in the experiment with ReNCell VM [2] (library: Spectrum) is active: 2.
In the same order, the values of `COc1cc2c(cc1OC)Cc1cc(OC)c(OC)cc1Cc1cc(OC)c(OC)cc1C2` are inactive: 0 and inactive: 0.
The matching figures for `CN(C)c1ccc(C(=C2C=CC(=[N+](C)C)C=C2)c2ccc(N(C)C)cc2)cc1`: inactive: 0 and inactive: 0.
In the case of `COc1ccc(C(=O)Nc2sc3c(c2C(N)=O)CCCC3)cc1OC`, the neuronal differentiation score in the experiment with ReNCell VM [1] (library: Tocriscreen) is inactive: 0. For the same compound, in the experiment with ReNCell VM [2] (library: Tocriscreen), the “dopaminergic neuron differentiation score” value is inactive: 0.
In the case of `CO[C@@]1(NC(=O)Cc2cccs2)C(=O)N2C(C(=O)O)=C(COC(N)=O)CS[C@@H]21`, the neuronal differentiation score in the experiment with ReNCell VM [1] (library: Spectrum) was inactive: 0. In the experiment on ReNCell VM [2] (library: Spectrum), the “dopaminergic neuron differentiation score” value is inactive: 0.
Regarding `Oc1c(Cl)cc(Cl)c(Cl)c1Cc1c(O)c(Cl)cc(Cl)c1Cl`, the neuronal differentiation score with ReNCell VM [1] (library: Spectrum) is inactive: 0. In addition, the “dopaminergic neuron differentiation score” value with ReNCell VM [2] (library: Spectrum) was inactive: 0.
On to `C=C(C)[C@@H]1CC[C@]2(CO)CC[C@]3(C)[C@H](CC[C@@H]4[C@@]5(C)CC[C@H](O)C(C)(C)[C@@H]5CC[C@]43C)[C@@H]12` [Betulin], for which the neuronal differentiation score in the experiment on ReNCell VM [1] (library: Phytochemical) was inactive: 0. The “dopaminergic neuron differentiation score” value in the experiment on ReNCell VM [2] (library: Phytochemical) is inactive: 0.
`NCCCC(=O)O` [gamma-AMINOBUTYRIC ACID]: the neuronal differentiation score in the experiment on ReNCell VM [1] (library: Spectrum) is inactive: 0. The “dopaminergic neuron differentiation score” value with ReNCell VM [2] (library: Spectrum) is inactive: 1.
`O=C(O)CCC/C=C\C[C@@H]1[C@@H](/C=C/[C@H](O)C2Cc3ccccc3C2)[C@@H](F)C[C@@H]1O`: in the experiment on ReNCell VM [1] (library: LOPAC), the neuronal differentiation score was inactive: 0. The “dopaminergic neuron differentiation score” value in the experiment on ReNCell VM [2] (library: LOPAC) was inactive: 0.
As for `O=c1[nH]c2cc(C(F)(F)F)ccc2n1-c1cc(C(F)(F)F)ccc1O`, the neuronal differentiation score with ReNCell VM [1] (library: LOPAC) is inactive: 0. In addition, the “dopaminergic neuron differentiation score” value in the experiment on ReNCell VM [2] (library: LOPAC) was inactive: 0.
For `CO/N=C(\C(=O)N[C@@H]1C(=O)N2C(C(=O)OCOC(=O)C(C)(C)C)=C(/C=C\c3scnc3C)CS[C@H]12)c1csc(N)n1`, the neuronal differentiation score with ReNCell VM [1] (library: Spectrum) is inactive: 0. The “dopaminergic neuron differentiation score” value with ReNCell VM [2] (library: Spectrum) was inactive: 0.
For `N=C(N)NC(=N)Nc1ccccc1` [1-Phenylbiguanide hydrochloride], the neuronal differentiation score with ReNCell VM [1] (library: Tocriscreen) is inactive: 0. The “dopaminergic neuron differentiation score” value with ReNCell VM [2] (library: Tocriscreen) is inactive: 0.

The values are drawn from the supplement of paper PMC4635364.
